These are yes or no findings as the source states them, for the method shown. For part of these data: Binding seen in cells or lysates may run through a third protein. Some entries that bind do so weakly or less than the wild type. Where a sequence is shown, tags or fusion partners need not be part of it.
T1: GST-DdBrk1 (coexpressed with Scar(1-225) and AbiA(1-149)) (Dictyostelium discoideum) (UniProt Q54X65)
T1 sequence: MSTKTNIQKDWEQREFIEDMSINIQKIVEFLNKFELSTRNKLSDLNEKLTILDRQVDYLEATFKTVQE


Legend:
[1] = target: Dictyostelium discoideum Brk1 (DdBrk1), GST tag removed (Dictyostelium discoideum) (UniProt Q54X65); assay: crystal structure; hanging drop, 40% MPD, 0.2 M CaCl2, 20°C; trimer built from symmetry mates of the 3-fold axis; 1.5 Å; both purified
[2] = target: T1, GST-DdBrk1 (coexpressed with Scar(1-225) and AbiA(1-149)) (Dictyostelium discoideum); assay: pull-down; GST-DdBrk1 coexpressed in E. coli with untagged Scar(1-225) and AbiA(1-149); glutathione sepharose affinity chromatography from bacterial extracts, eluted with PBS and 30 mM reduced glutathione

| Binder | binding [1] | binding [2] |
| --- | --- | --- |
| Dictyostelium discoideum Brk1 (DdBrk1), GST tag removed (natural protein, extra amino acids left at the N-terminus after PreScission cleavage of the GST tag; Brk1 (HSPC300 ortholog) of Dictyostelium discoideum, 68 residues; Calculated molar mass 8.61 kg/mol per chain; homotrimer by sedimentation equilibrium; also called DdHSPC300; HSPC300; source: E. coli BL21 DE3, purified (glutathione sepharose, PreScission cleavage, Mono Q, Superdex-S75); not shown: GST, N-terminal, …) GPLGSMSTKTNIQKDWEQREFIEDMSINIQKIVEFLNKFELSTRNKLSDLNEKLTILDRQVDYLEATFKTVQE | binds | – |
| Scar (aa1-225) of Dictyostelium discoideum (domain or fragment, UniProt Q54NF8 1-225) MVLITRYLPSVTDNNQPALEGQSKDQIVDTVITSTTVGIINQLTMLVAHSNSIFTALANDANLVTQRIEKLGSRIRPLIQSIPSIEDYHRNTSIDTMNSKPRAEFHADNSERNQHFTHASIPASINTVYEKCKPPPNLQLLDPYMDDGQKSLKLYTNPDFFMDEWVAEQQKLHEEARQRKRERREARLKKKGEKNEVEVKKVKSVTKVRYDPVTGEKITINIESP | – | binds |
| AbiA (aa1-149) of Dictyostelium discoideum (domain or fragment, UniProt Q55FT9 1-149) MSESIDINVYSQTTIPNAMAELMDNHNKMEQISAYCKSLYANGDAAQAYEQTQGYAKNALLNVAYHIQTVGTHITSLLQLQTNEMEKLNIEIQTLTQRVRMIHDSTGTNVFSNQDAAKPYKSSLKNRKVDTEATKAPVKYVHKPISYGI | – | binds |

From publication PMC3119050, “High-Resolution X-Ray Structure of the Trimeric Scar/WAVE-Complex Precursor Brk1” (PLoS ONE, 2011)
